These results are taken from article doi:10.1101/260919.

Amino acid sequences for entries named in this document (tags omitted). A change or cut given only in a name is not applied to a line headed by its entry. Chains listed by the source or under a name are the forms on record and can include a tag or linker.
UniProt Q96P20: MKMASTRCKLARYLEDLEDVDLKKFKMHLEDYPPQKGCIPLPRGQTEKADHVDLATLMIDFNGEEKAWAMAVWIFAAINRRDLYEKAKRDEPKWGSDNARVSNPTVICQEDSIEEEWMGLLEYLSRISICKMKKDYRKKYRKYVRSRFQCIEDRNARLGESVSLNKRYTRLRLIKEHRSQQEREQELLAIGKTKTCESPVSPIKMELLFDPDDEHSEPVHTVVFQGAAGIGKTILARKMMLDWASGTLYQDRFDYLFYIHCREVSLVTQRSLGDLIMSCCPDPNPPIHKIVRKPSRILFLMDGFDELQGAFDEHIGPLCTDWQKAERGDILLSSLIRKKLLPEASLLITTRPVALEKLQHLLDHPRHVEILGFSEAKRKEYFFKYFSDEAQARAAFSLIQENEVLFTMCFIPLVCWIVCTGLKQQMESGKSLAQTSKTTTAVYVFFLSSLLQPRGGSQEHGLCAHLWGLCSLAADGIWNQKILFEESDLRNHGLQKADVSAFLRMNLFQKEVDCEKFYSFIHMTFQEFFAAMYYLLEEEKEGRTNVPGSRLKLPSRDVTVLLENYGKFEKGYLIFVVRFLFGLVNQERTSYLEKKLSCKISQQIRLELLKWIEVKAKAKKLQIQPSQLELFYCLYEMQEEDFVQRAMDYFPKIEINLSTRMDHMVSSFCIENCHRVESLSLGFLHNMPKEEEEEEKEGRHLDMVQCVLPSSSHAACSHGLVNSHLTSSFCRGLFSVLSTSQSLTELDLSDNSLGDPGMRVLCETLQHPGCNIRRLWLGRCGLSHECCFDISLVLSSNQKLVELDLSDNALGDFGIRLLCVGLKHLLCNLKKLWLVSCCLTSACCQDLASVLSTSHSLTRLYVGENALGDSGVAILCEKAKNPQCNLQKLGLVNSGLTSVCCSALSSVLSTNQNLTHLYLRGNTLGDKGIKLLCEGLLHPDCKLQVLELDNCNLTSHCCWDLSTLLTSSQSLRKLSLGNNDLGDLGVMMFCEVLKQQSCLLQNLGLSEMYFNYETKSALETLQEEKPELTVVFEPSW
endogenous DPP9 (dipeptidyl peptidase 9) (Q86TI2-2, form named): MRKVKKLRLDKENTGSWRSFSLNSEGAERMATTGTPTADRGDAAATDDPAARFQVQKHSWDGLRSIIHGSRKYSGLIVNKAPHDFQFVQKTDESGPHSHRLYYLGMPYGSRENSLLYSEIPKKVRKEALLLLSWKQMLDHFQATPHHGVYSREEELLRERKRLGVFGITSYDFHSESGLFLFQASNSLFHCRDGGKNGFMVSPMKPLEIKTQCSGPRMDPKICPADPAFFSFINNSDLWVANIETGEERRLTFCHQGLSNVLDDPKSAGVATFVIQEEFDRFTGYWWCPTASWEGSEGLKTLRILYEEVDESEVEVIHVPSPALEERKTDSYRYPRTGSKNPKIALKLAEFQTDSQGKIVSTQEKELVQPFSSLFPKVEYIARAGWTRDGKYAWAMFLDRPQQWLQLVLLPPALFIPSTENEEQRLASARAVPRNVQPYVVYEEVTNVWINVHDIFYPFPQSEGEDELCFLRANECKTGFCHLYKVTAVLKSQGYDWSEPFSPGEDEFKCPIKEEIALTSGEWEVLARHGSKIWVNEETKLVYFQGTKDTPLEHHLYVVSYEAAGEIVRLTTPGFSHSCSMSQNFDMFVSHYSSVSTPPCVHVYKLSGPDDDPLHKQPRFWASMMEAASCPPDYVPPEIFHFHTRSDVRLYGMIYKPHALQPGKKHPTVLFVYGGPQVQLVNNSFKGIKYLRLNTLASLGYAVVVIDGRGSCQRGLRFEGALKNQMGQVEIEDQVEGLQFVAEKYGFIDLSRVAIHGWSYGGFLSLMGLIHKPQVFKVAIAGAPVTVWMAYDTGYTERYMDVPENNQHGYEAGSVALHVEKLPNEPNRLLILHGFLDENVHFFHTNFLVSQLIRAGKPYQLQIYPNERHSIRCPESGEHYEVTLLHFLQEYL

What all share (test): co-IP
Experiment [1] has as its target T1, FLAG-tagged full-length NLRP1 (human) (UniProt Q9C000).
T1 sequence: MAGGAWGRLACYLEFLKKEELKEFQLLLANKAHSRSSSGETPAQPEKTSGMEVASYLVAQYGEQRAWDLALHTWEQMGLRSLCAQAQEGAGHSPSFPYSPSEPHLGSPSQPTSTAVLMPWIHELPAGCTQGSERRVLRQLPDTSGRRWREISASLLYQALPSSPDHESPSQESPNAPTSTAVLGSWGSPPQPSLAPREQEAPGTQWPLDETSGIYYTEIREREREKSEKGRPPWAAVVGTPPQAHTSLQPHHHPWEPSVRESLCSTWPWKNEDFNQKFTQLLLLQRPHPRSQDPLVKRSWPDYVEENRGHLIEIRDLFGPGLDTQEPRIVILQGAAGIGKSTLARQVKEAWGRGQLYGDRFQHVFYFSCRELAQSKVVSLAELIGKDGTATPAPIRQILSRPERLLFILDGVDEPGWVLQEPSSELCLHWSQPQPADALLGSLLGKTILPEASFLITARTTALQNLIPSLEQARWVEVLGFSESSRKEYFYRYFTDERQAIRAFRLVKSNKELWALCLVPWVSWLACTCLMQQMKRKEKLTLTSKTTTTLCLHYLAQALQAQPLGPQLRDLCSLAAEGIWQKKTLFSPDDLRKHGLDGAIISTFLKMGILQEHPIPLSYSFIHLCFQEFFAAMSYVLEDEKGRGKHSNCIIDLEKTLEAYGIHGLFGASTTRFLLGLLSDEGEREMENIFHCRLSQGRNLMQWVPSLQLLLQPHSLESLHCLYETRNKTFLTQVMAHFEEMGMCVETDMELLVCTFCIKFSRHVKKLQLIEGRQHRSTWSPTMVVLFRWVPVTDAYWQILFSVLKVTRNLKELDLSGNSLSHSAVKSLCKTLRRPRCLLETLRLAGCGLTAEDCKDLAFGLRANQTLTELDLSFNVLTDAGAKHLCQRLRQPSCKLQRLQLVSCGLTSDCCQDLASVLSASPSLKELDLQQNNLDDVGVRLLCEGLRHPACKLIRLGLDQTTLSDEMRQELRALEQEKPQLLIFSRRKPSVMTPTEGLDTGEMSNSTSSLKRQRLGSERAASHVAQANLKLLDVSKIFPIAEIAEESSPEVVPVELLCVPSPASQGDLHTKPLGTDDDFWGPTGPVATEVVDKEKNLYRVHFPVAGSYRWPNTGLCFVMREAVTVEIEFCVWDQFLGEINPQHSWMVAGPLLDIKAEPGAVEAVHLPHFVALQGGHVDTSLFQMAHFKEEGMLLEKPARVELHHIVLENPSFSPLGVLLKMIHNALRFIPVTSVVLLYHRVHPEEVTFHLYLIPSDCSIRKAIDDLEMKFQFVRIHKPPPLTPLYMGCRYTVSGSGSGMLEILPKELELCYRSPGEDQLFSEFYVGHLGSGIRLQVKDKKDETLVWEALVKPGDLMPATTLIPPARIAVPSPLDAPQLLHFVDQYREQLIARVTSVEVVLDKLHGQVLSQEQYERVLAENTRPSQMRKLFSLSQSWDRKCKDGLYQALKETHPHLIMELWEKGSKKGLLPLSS

Experiment [2] concerns the target T2, full length NLRP1 p.P1214R (NAIAD mutation) (human) (UniProt Q9C000).
T2 sequence: T1 sequence with P1214R

For experiment [3], the target named is T3, NLRP1 a.a. 1213-1373 (carboxy-terminal fragment of the FIIND domain) (human) (UniProt Q9C000).
T3 sequence: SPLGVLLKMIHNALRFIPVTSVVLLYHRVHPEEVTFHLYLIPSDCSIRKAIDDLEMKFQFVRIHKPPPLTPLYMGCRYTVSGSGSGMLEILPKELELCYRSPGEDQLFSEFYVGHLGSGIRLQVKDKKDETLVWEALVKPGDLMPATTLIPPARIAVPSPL

Another experiment concerns the target NLRP3 (UniProt Q96P20).
Experiment [4] has as its target T4, NLRP1-FIIND (a.a. 986-1373) (human) (UniProt Q9C000).
T4 sequence: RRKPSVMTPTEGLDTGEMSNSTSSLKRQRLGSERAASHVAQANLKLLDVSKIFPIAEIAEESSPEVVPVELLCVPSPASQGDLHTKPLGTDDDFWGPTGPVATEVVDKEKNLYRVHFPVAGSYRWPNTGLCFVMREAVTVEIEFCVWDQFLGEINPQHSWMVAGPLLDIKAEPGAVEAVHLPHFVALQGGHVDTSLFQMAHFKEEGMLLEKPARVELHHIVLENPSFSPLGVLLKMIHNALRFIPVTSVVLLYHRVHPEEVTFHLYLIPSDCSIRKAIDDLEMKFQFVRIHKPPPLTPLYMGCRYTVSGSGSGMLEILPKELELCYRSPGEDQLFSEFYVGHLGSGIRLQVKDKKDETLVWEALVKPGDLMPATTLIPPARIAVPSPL

Where a chain is given by its changes, count along the chain named. These are yes or no findings as the source states them, for the method shown. In cells and extracts the contact can be indirect. Some entries that bind do so weakly or less than the wild type. For part of these data: Where a sequence is shown, tags or fusion partners need not be part of it.

Take “DPP9L (long splice isoform of DPP9), transfected (from UniProt Q86TI2-2 1-892) (enzyme)”: the binding entry in experiment [1] is reported as “binds”.
As for “endogenous DPP9 (dipeptidyl peptidase 9) (from UniProt Q86TI2-2 1-892) (enzyme)”, the binding entry was “binds” in experiment [1]; “no binding” in experiment [2]; “no binding” in experiment [3]; “no binding” with NLRP3; “binds” in experiment [4].
